Source: PubChem BioAssay AID2685 (National Center for Advancing Translational Sciences (NCATS), 2010)
The campaign covered roughly 320,000 compounds. About 2,100 (0.66%) were called active. Inconclusive means that the source gave no clear call. Such entries were picked first, then a sample of the others. Calls come from the whole dose curve; as a rule, active = well fitted inhibition curve with a large enough effect in the signal ratio, with a control signal flat (not every such curve was filed as active); inconclusive = small, poorly fitted or top-dose-only effect, or effect the other way, or a change in a side signal; inactive = flat fitted curve, though single readings scatter; the % refers to the signal ratio. Potencies of inconclusive entries are doubtful fits and often do not repeat.

Experiment: qHTS Assay for Lipid Storage Modulators in Drosophila S3 Cells
Details: BODIPY lipid droplet fluorescence, 18-24 h, cells fed with added oleic acid; lipid storage change, negative = inhibition: at 46.1 µM (top of the series) unless noted
Method in brief: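 Laser-scanning cytometry quantifies lipid droplet accumulation (500–530 nm total intensity; droplet/cell object ratio) in oleic acid-fed (400 uM added) Drosophila S3 cells treated with a concentration series. 20 uM Triacsin C defined 100% inhibition.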
% is set by controls: 0 for no effect and ±100 for the full control effect; potency is the fitted concentration of half-maximal effect.

SMILES	lipid storage change, negative = inhibition	Potency
Cc1ccc(SCC(=O)Nc2cccc(C(=O)NC(C)(C)C)c2)cc1	inconclusive: 15.7%	
C/C(CC(=O)Nc1ccccn1)=N\NC(=O)C(=O)Nc1ccccc1C	inconclusive: 1.74%	
Cc1ccccc1C(=O)NC(CC(C)C)C(=O)OCC(=O)c1c(N)n(C)c(=O)n(C)c1=O (configuration not stated)	inconclusive: -7.56%	
O=C(CSc1n[nH]c(-c2ccncc2)n1)NC1CCS(=O)(=O)C1 (configuration not stated)		inconclusive: 0.146 µM [activator, full curve, poor fit]
O=c1sc(/C=N/Nc2ccccc2)c(Cl)n1Cc1ccccc1	inconclusive: -8.99%	
CCOc1ccc(/C(C)=N/NC(=O)C(OC)c2ccccc2)cc1 (configuration not stated)	inconclusive: 1.47%	
NC(=O)CNC1CC(=O)N(CCc2ccccc2)C1=O (configuration not stated)		inconclusive: 23.1 µM [cytotoxic, partial curve]
COc1ccc(N(C(=O)CNC(=O)c2ccco2)C(C(=O)NCC2CCCO2)c2ccc(OC)c(OC)c2)cc1 (configuration not stated)	inconclusive: -32%	
COc1cc2c(cc1OC)CN(CC(=O)Nc1ccccc1SC)CC2	inconclusive: 17.3%	
COc1nc(-c2ccccc2)cc(-c2ccccc2)n1		inconclusive: 1.3 µM [activator, full curve, poor fit]
COc1ccc(-c2noc(CCC(N)=O)n2)cc1OC	inconclusive: 20.6%	
COC(=O)C1CCN(C(=O)c2ccc(NC(C)=O)cc2)CC1		inconclusive: 29.1 µM [falling, single point]
COc1ccc(CCNC(=O)CSc2nnc(Cn3c(=O)sc4ccccc43)n2C)cc1OC	inconclusive: -23.3%	
CCOC(=O)Cc1csc(NC(=O)c2ccc3ncsc3c2)n1	inconclusive: -0.758%	
COc1cc2c(cc1OC)CN(Cc1cc(=O)oc3cc(C)c(Cl)cc13)CC2	inconclusive: -105%	
CCC(=O)Nc1nonc1-c1nc2ccccc2n1CC(C)C		inconclusive: 5.8 µM [activator, partial curve]
CCC(=O)NCc1cc(-c2nn(C)c(=O)c3ccccc23)ccc1OC	inconclusive: 9.79%	
CCCOc1cccc(NC(=O)c2cc(C)oc2C)c1	inconclusive: 42.9%	
Cc1ccc(OCCCCn2ccnc2C)c(C)c1	inconclusive: -48.5% [cytotoxic] [at 0.369 µM]	
COC(=O)c1scc(C)c1N1C(=O)c2ccccc2C1=O	inconclusive: 9.38%	
Cc1noc(C)c1CC(=O)Nc1ccc2c(c1)OCO2		inconclusive: 0.0046 µM [rising, full curve, poor fit]
CCCCn1c(N)c(N(Cc2ccccc2OC)C(=O)COc2ccc(F)cc2Cl)c(=O)[nH]c1=O		inconclusive: 29.1 µM [falling, single point]
Cc1cc(NS(=O)(=O)c2ccc(NC(=O)CCCC(=O)O)cc2)nc(C)n1	inactive: -13.2%	
CCN(CC)CCn1c2c(c(SCC(=O)Nc3nc4ccccc4s3)nc1=O)CCC2		inconclusive: 0.0259 µM [falling, full curve, poor fit]
O=C(c1ccccc1Br)N1CCN(Cc2ccc3c(c2)OCO3)CC1	inconclusive: -14.4%	
CCN(C(=O)CCCC(=O)N(CC)c1ccccc1)c1ccccc1	inconclusive: 22.4%	

SMILES	lipid storage change, negative = inhibition	Potency
CCCC(=O)Nc1ccc(Nc2ccccc2)cc1	inconclusive: -13.9%	
O=C(CSc1nnc2ncccn12)Nc1cccc2ccccc12	inconclusive: -24.1%	
CC(=O)N1c2ccc(S(=O)(=O)N(C)c3cc(C)ccc3C)cc2CC1C (configuration not stated)	inconclusive: -19.2%	
C[C@@H]1CCC(=O)N(C[C@@H](C)CC#N)CC1	inconclusive: -36%	
O=C(C1CCCN(c2ncnc3c2nc2n3CCCCC2)C1)N1CCN(c2cccc(Cl)c2)CC1 (configuration not stated)	inconclusive: -186%	
COc1ccc(-c2cc(C(=O)N3CCCCCC3)no2)cc1OC	inconclusive: -100%	
COc1ccc2cc(C(N)=O)c(=Nc3ccc(C)cc3)oc2c1	inconclusive: -19.8%	
COc1ccc(C[C@H]2CN3C(=NC[C@@H]3Cc3ccc(O)cc3)N2CCNC(=O)c2ccc(C)c(Br)c2)cc1		inconclusive: 3.66 µM [falling, single point]
CCC(C)c1ccc(OCCn2ccnc2)cc1 (configuration not stated)	inconclusive: -4.92%	
Cc1ccc(S(=O)(=O)N2CCCC2=O)c(C)c1N(C)S(C)(=O)=O	inconclusive: -77.2%	
O=C(c1ccco1)[C@@H]1[C@@H]2C(=O)N(c3ccc(F)cc3)C(=O)[C@@H]2[C@H]2C=Cc3ccccc3N21	inconclusive: -52.7%	
COc1ccc(/C(N)=N/OC(=O)c2ccc3c(c2)OCO3)cc1		inconclusive: 0.58 µM [activator, full curve, poor fit]
NC(=O)C1CCN(C2=C(NS(=O)(=O)c3ccc(Br)cc3)C(=O)c3ccccc3C2=O)CC1	inconclusive: -71.3%	
O=C(C1CCCCC1)N1CC(=O)N2CCc3ccccc3C2C1 (configuration not stated)		inconclusive: 9.2 µM [activator, partial curve]
O=C(NCc1ccco1)C1CCCN(S(=O)(=O)c2ccccc2)C1 (configuration not stated)		inconclusive: 0.116 µM [falling, full curve, poor fit]
CC(C)C1Oc2ccccc2C(=O)N(CC(=O)c2ccc3c(c2)OCCO3)C1=O (configuration not stated)	inconclusive: -48.5%	
O=C(O)CCn1c(=O)n(CCC(=O)O)c(=O)n(CCC(=O)O)c1=O	inconclusive: -20.2%	
Cc1nnc(-c2cccc(Br)c2)c2cn(-c3ccccc3)nc12	inconclusive: 17.8%	
O=C(NC(Cc1ccccc1)c1nc2ccccc2[nH]1)c1ccc(Cl)c([N+](=O)[O-])c1 (configuration not stated)		inconclusive: 20.6 µM [falling, single point]
C=CCOC(=O)C1=C(C)NC(=O)NC1c1ccc(OC(=O)c2ccco2)c(OC)c1 (configuration not stated)		inconclusive: 7.31 µM [activator, single point]
Cc1ccc(S(=O)(=O)N(CC(=O)Nc2cccc([N+](=O)[O-])c2)Cc2ccc(Cl)cc2)cc1	inconclusive: 41%	
O=C(CSc1nc(C2CC2)nc2ccccc12)N1c2ccccc2Sc2ccc(C(F)(F)F)cc21		inconclusive: 0.731 µM [activator, full curve]
Cc1cccc2cc(/C=N/NC(=O)c3ccccc3O)c(Cl)nc12	inconclusive: -17.4%	
COc1ccc(OC)c(CCNC(=O)c2ccc3c(=O)[nH]c4c(C(=O)NC(C)C)sc(=S)n4c3c2)c1		inconclusive: 1.03 µM [falling, full curve]
CCOc1ccc(N=C2NC(=O)C(CC(=O)O)S2)cc1 (configuration not stated)	inconclusive: 6.42%	
O=C(c1cccc(S(=O)(=O)NCc2ccccc2)c1)N1CCCC1	inconclusive: 23%	

SMILES	lipid storage change, negative = inhibition	Potency
Cc1ccc(NC(=Nc2ccc(Br)cc2)N2CCOCC2)cc1C		inconclusive: 3.66 µM [activator, full curve]
COc1ccc(OC)c2c(C)cc(NCCN3CCOCC3)nc12	inconclusive: 18.3%	
COCCn1c(SCC(=O)Nc2cc(C)on2)nnc1C(C)C	inconclusive: 91%	
CC(C)(C)c1ccc(OCC(O)CN(CCO)CC(O)Cn2ccc3ccccc32)cc1 (configuration not stated)		inconclusive: 20.6 µM [falling, single point]
O=C(NNc1ccc([N+](=O)[O-])cc1[N+](=O)[O-])C1C2CCCCC21 (configuration not stated)	inconclusive: 2.7%	
O=C(Cn1c(=O)[nH]c2ccccc2c1=O)Nc1cccnc1	inconclusive: -16.4%	
COc1ccc(NC(=O)CSCC(=O)N(C)Cc2c(F)cccc2Cl)cc1	inconclusive: -7.09%	
CCN(CC)c1nc2n(c(=O)n1)CCO2	inconclusive: -121%	
CC1(C)CCCN(Cc2c(O)ccc3c(=O)c(-c4nc5ccccc5s4)c(N)oc23)C1	inconclusive: 7.24%	
COc1ccccc1-n1nnnc1SCC(=O)Nc1ccc(C)c(N)c1	inconclusive: 9.44%	
O=C(NC1CCCCC1)N(Cc1cc2cc3c(cc2[nH]c1=O)OCCO3)CC1CCCO1 (configuration not stated)	inconclusive: 21.1%	
CC1CN(C(=S)NC2CCCC2)CC(C)O1 (configuration not stated)		inconclusive: 29.1 µM [falling, single point]
CC(=O)Oc1cccc(NC(=O)c2ccc3c(c2)C(=O)N(CC(C)C)C3=O)c1	inconclusive: -21.3%	
CC(=O)Nc1ccc(/C=N/NC(=O)CNS(=O)(=O)c2ccccc2)cc1	inconclusive: 2.48%	
Nc1ccc(S(=O)(=O)NC2(C(F)(F)F)NC(=O)N(c3ccc(F)cc3)C2=O)cc1 (configuration not stated)	inconclusive: -17.4%	
O=C(Nc1ccc(OCc2ccccc2)cc1)c1cccs1	inconclusive: -16.1%	
CCOC(=O)c1c(C)oc(C)c(C(=O)OCC)c1=O	inconclusive: 7.54%	
Cc1cccc(C(=O)NNC(=O)c2ccc(O)cc2)c1	inconclusive: 21.8%	
O=c1[nH]c2ccccc2nc1/C=C/c1ccc(Cl)cc1	inconclusive: 8.04%	
CCCn1c(N)c(NCCN2CCOCC2)c(=O)n(CC(=O)NCc2ccccc2)c1=O	inconclusive: -16.1%	
O=c1nc(-c2ccccc2)cc(C(F)(F)F)[nH]1	inactive: -9.25%	
CCc1cc2c(nc1CC)CCN(CC/C(C)=N/OC[C@H]1O[C@H](c3ccccc3)C=C[C@@H]1Oc1ccc(OC)cc1)C2	inconclusive: 7.68%	
COc1ccccc1C(=O)NCC(=O)NCCC(c1ccccc1)c1ccccc1	inconclusive: -6.16%	
Cc1cc(Br)c(NC(=O)Cn2c([N+](=O)[O-])cnc2C)cc1C	inconclusive: 18.7%	
CC(c1ccccc1)N1CC(C(=O)N2CCN(c3ccc(F)cc3)CC2)CC1=O (configuration not stated)	inconclusive: 7.33%	

18 consecutive compounds out of the list so far, quoted:
SMILES	lipid storage change, negative = inhibition	Potency
Cc1ccc(S(=O)(=O)N(CC(=O)Nc2cccc([N+](=O)[O-])c2)Cc2ccc(Cl)cc2)cc1	inconclusive: 41%	
O=C(CSc1nc(C2CC2)nc2ccccc12)N1c2ccccc2Sc2ccc(C(F)(F)F)cc21		inconclusive: 0.731 µM [activator, full curve]
Cc1cccc2cc(/C=N/NC(=O)c3ccccc3O)c(Cl)nc12	inconclusive: -17.4%	
COc1ccc(OC)c(CCNC(=O)c2ccc3c(=O)[nH]c4c(C(=O)NC(C)C)sc(=S)n4c3c2)c1		inconclusive: 1.03 µM [falling, full curve]
CCOc1ccc(N=C2NC(=O)C(CC(=O)O)S2)cc1 (configuration not stated)	inconclusive: 6.42%	
O=C(c1cccc(S(=O)(=O)NCc2ccccc2)c1)N1CCCC1	inconclusive: 23%	
Cc1ccc(NC(=Nc2ccc(Br)cc2)N2CCOCC2)cc1C		inconclusive: 3.66 µM [activator, full curve]
COc1ccc(OC)c2c(C)cc(NCCN3CCOCC3)nc12	inconclusive: 18.3%	
COCCn1c(SCC(=O)Nc2cc(C)on2)nnc1C(C)C	inconclusive: 91%	
CC(C)(C)c1ccc(OCC(O)CN(CCO)CC(O)Cn2ccc3ccccc32)cc1 (configuration not stated)		inconclusive: 20.6 µM [falling, single point]
O=C(NNc1ccc([N+](=O)[O-])cc1[N+](=O)[O-])C1C2CCCCC21 (configuration not stated)	inconclusive: 2.7%	
O=C(Cn1c(=O)[nH]c2ccccc2c1=O)Nc1cccnc1	inconclusive: -16.4%	
COc1ccc(NC(=O)CSCC(=O)N(C)Cc2c(F)cccc2Cl)cc1	inconclusive: -7.09%	
CCN(CC)c1nc2n(c(=O)n1)CCO2	inconclusive: -121%	
CC1(C)CCCN(Cc2c(O)ccc3c(=O)c(-c4nc5ccccc5s4)c(N)oc23)C1	inconclusive: 7.24%	
COc1ccccc1-n1nnnc1SCC(=O)Nc1ccc(C)c(N)c1	inconclusive: 9.44%	
O=C(NC1CCCCC1)N(Cc1cc2cc3c(cc2[nH]c1=O)OCCO3)CC1CCCO1 (configuration not stated)	inconclusive: 21.1%	
CC1CN(C(=S)NC2CCCC2)CC(C)O1 (configuration not stated)		inconclusive: 29.1 µM [falling, single point]
